The target of this assay is T1, FLAG-tagged mouse Nucleoporin 153 (mouse) (UniProt E9Q3G8).
T1 sequence: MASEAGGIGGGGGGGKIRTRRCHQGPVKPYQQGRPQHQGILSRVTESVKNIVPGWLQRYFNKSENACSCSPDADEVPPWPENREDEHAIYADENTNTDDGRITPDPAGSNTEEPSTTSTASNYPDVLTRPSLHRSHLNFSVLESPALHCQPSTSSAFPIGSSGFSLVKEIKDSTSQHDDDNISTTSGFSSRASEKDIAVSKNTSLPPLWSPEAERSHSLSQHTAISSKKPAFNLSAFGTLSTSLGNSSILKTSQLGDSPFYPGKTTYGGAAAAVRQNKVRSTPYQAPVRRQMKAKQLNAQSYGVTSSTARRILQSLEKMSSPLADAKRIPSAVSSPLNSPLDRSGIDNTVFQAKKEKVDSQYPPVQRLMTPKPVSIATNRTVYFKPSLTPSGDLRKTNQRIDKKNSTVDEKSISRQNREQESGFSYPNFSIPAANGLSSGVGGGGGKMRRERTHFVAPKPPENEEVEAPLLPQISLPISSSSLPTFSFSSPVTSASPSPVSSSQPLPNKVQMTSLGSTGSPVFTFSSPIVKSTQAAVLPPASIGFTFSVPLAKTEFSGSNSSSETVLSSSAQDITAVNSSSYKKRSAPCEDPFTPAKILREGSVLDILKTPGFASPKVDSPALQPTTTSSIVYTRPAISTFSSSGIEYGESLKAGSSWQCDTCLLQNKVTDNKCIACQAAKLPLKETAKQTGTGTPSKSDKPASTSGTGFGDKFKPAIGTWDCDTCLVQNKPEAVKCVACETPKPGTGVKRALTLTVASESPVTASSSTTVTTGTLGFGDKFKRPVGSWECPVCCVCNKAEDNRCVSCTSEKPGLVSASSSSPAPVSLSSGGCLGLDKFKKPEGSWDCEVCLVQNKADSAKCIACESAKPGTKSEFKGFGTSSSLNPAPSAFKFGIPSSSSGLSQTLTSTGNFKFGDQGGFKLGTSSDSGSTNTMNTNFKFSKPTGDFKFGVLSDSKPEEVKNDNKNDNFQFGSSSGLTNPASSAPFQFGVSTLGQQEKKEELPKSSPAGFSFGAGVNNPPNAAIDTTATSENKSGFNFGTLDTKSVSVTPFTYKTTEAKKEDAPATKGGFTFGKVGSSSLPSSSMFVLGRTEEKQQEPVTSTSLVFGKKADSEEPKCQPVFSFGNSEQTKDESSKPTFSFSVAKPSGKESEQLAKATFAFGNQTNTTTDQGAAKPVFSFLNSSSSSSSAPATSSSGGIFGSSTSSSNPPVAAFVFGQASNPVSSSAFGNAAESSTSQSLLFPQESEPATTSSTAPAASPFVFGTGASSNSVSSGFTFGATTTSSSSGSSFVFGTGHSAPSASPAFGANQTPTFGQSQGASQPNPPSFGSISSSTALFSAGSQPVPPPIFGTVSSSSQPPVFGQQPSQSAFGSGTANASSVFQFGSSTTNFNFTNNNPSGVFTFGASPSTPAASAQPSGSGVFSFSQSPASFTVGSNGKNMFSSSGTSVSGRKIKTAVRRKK
Put plainly: affinity purification with mass spectrometry.

Protein sequences, listed by entry. Tags and fused reporters are not part of them.
UniProt O60216: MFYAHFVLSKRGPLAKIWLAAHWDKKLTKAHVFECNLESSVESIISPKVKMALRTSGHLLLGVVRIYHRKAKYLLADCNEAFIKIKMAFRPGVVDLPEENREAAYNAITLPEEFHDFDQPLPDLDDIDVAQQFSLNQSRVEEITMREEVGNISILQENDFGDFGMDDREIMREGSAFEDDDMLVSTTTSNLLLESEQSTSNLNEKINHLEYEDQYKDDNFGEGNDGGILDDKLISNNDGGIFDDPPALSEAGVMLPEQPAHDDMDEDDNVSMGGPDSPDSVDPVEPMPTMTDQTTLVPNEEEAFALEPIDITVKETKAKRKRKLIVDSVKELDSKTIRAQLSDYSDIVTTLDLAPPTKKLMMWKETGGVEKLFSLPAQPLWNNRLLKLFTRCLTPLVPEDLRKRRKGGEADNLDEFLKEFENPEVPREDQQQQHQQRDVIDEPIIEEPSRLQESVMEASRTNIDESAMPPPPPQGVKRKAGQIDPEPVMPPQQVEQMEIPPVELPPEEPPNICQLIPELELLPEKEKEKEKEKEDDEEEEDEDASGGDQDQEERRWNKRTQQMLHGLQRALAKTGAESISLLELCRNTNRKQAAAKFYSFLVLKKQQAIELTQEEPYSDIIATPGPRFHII
UniProt Q9UQE7: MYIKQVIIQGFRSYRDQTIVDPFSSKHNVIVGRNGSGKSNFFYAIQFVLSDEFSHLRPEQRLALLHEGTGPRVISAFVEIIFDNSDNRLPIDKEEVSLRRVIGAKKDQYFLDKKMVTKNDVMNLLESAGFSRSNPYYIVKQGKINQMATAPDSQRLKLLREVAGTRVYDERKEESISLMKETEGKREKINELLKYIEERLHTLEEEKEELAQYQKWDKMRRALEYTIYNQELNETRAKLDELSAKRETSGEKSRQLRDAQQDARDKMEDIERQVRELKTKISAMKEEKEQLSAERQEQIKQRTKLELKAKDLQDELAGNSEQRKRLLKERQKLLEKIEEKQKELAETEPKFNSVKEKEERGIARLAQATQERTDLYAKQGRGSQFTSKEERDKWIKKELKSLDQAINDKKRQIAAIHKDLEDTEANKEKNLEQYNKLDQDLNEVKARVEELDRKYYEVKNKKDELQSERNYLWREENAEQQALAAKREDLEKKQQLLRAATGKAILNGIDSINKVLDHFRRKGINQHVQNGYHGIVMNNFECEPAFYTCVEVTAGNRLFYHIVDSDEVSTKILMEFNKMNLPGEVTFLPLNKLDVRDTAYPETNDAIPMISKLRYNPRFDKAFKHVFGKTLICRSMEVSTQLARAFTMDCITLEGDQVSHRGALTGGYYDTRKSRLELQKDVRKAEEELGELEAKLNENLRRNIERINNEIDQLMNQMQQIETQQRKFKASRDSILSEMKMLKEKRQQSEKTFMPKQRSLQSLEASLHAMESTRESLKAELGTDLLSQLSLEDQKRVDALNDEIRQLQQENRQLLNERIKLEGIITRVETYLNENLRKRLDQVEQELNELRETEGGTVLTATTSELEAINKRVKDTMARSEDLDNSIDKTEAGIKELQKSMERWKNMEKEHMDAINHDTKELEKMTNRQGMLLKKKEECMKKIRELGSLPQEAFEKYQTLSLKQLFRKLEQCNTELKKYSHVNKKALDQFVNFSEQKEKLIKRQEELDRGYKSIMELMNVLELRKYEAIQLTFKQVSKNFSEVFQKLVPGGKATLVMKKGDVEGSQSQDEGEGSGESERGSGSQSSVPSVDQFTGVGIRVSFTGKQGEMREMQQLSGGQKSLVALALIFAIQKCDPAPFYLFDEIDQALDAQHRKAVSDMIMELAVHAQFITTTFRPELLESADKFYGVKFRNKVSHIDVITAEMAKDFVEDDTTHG
UniProt Q92973: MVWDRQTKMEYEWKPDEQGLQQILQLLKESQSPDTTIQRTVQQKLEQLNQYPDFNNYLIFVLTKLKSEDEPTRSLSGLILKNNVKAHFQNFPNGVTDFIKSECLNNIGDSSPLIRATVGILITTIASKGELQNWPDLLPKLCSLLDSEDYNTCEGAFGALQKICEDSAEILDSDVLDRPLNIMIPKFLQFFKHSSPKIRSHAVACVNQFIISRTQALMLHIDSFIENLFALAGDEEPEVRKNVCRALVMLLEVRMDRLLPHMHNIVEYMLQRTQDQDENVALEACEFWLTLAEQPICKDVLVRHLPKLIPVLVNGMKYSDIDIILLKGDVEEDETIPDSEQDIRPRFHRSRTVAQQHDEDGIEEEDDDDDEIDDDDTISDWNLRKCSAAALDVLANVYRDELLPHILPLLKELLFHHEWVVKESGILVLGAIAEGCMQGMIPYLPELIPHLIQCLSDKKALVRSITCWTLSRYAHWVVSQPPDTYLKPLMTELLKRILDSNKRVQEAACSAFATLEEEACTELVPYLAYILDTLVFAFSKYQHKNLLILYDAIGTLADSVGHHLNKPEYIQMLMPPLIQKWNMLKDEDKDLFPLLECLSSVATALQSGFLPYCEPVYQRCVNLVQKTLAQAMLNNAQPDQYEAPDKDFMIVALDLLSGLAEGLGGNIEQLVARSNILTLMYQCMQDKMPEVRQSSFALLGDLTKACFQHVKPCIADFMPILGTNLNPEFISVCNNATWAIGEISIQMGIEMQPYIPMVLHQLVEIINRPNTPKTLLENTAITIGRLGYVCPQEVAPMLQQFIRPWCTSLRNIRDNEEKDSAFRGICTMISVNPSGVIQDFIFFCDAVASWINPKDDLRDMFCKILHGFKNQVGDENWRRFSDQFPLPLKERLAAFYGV
UniProt P12270: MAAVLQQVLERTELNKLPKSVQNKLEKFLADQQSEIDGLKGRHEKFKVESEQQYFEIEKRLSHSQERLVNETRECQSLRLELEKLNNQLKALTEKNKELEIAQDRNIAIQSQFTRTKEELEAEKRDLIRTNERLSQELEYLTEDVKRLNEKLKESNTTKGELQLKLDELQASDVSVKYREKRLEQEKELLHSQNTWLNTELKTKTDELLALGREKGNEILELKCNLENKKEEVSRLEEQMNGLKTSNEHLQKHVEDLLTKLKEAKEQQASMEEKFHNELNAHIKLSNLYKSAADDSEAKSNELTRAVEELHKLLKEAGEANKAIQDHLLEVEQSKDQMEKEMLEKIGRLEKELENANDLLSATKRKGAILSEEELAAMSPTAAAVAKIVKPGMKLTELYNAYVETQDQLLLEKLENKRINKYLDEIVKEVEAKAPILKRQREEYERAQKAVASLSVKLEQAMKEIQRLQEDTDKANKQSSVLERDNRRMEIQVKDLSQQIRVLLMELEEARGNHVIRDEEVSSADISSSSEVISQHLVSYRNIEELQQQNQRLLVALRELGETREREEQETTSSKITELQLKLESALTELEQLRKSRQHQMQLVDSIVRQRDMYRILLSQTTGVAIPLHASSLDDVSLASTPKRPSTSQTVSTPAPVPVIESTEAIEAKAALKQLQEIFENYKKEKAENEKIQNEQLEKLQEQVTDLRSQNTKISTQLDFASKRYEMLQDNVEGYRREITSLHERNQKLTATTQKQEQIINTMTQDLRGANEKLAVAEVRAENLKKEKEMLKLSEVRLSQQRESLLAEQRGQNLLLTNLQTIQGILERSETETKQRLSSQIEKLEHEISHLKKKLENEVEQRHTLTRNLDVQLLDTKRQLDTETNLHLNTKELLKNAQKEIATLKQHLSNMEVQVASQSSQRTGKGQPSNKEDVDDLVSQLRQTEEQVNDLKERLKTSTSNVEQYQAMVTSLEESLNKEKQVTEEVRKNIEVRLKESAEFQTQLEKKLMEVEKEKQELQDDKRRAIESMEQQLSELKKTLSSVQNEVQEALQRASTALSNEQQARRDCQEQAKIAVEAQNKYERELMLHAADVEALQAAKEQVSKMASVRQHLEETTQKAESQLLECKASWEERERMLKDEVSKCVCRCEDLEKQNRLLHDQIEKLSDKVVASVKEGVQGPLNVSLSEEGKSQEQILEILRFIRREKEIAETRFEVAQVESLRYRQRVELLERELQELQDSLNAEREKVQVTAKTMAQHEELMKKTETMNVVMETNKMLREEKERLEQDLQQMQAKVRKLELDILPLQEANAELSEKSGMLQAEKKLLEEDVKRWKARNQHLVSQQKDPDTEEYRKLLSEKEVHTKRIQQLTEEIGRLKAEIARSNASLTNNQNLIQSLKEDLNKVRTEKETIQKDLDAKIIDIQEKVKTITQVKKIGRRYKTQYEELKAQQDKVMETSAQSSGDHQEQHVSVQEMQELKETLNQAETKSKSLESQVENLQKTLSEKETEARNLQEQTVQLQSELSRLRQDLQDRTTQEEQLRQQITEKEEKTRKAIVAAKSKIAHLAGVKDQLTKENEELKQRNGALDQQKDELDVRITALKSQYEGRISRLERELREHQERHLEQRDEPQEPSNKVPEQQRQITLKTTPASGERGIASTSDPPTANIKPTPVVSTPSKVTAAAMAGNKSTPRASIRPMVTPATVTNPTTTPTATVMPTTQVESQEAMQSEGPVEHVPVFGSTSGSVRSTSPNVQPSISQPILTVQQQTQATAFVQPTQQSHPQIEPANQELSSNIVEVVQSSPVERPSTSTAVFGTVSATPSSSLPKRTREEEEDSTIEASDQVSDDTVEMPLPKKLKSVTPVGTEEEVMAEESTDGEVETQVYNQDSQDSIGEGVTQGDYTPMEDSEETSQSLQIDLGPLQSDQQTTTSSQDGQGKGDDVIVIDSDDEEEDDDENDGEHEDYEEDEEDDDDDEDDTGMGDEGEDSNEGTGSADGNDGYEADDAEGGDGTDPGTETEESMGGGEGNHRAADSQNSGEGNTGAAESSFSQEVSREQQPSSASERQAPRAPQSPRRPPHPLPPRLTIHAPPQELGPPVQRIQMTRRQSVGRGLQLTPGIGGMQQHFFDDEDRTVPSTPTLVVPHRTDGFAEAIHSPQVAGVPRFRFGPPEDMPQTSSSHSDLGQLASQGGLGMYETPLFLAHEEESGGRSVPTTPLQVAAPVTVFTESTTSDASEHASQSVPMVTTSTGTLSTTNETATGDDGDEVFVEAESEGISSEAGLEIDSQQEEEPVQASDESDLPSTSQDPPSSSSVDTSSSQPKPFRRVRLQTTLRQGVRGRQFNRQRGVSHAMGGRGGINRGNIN
UniProt O14980: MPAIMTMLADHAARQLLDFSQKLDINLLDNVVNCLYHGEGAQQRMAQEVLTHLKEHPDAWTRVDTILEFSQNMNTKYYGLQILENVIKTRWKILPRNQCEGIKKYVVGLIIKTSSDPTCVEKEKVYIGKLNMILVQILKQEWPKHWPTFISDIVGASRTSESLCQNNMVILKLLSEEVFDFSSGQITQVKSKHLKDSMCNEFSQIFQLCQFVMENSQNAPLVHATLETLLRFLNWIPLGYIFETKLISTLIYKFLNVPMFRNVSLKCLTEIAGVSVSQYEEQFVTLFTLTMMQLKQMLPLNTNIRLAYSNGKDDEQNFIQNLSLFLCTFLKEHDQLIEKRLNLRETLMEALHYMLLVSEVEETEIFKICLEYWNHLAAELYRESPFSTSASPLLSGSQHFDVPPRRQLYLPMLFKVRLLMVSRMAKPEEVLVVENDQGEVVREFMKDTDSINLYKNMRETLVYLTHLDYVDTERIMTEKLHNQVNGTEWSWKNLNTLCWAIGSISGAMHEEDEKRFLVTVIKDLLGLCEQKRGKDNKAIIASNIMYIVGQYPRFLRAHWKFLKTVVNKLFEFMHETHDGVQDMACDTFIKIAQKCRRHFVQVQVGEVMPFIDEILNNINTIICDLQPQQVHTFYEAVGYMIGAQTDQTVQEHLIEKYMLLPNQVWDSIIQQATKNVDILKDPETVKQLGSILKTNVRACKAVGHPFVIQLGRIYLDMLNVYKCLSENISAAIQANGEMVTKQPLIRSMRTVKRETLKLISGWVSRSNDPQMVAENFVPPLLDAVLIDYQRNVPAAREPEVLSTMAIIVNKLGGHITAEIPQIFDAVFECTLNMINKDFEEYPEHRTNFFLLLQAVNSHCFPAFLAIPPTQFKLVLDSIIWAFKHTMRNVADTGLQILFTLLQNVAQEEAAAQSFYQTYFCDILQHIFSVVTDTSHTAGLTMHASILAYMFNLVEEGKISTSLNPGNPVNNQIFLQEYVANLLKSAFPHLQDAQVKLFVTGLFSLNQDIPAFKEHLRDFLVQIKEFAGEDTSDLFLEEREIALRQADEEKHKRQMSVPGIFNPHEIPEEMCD

Results are given in words; binding and its absence hold for the method and conditions named. In cells and extracts the contact can be indirect. Here binding means that the protein was enriched with, or labelled near, the bait; the list need not be complete. Sequences can lack the tags named with a protein.

IPO5 (from UniProt O00410 1-1097): the binding result is “binds”.

For the molecule RAD21 (from UniProt O60216 1-631), the binding result is given as “binds”.

Turning to SMC3 (from UniProt Q9UQE7 1-1217), the binding entry is “binds”.

For the molecule TNPO1 (from UniProt Q92973 1-898), the binding entry is recorded as “binds”.

As to TPR (from UniProt P12270 1-2363), the binding result was “binds”.

Take XPO-1 (from UniProt O14980 1-1071): the binding entry is given as “binds”.

B1: SMC1A (protein, UniProt Q14683 1-1233)
chain: MGFLKLIEIENFKSYKGRQIIGPFQRFTAIIGPNGSGKSNLMDAISFVLGEKTSNLRVKTLRDLIHGAPVGKPAANRAFVSMVYSEEGAEDRTFARVIVGGSSEYKINNKVVQLHEYSEELEKLGILIKARNFLVFQGAVESIAMKNPKERTALFEEISRSGELAQEYDKRKKEMVKAEEDTQFNYHRKKNIAAERKEAKQEKEEADRYQRLKDEVVRAQVQLQLFKLYHNEVEIEKLNKELASKNKEIEKDKKRMDKVEDELKEKKKELGKMMREQQQIEKEIKEKDSELNQKRPQYIKAKENTSHKIKKLEAAKKSLQNAQKHYKKRKGDMDELEKEMLSVEKARQEFEERMEEESQSQGRDLTLEENQVKKYHRLKEEASKRAATLAQELEKFNRDQKADQDRLDLEERKKVETEAKIKQKLREIEENQKRIEKLEEYITTSKQSLEEQKKLEGELTEEVEMAKRRIDEINKELNQVMEQLGDARIDRQESSRQQRKAEIMESIKRLYPGSVYGRLIDLCQPTQKKYQIAVTKVLGKNMDAIIVDSEKTGRDCIQYIKEQRGEPETFLPLDYLEVKPTDEKLRELKGAKLVIDVIRYEPPHIKKALQYACGNALVCDNVEDARRIAFGGHQRHKTVALDGTLFQKSGVISGGASDLKAKARRWDEKAVDKLKEKKERLTEELKEQMKAKRKEAELRQVQSQAHGLQMRLKYSQSDLEQTKTRHLALNLQEKSKLESELANFGPRINDIKRIIQSREREMKDLKEKMNQVEDEVFEEFCREIGVRNIREFEEEKVKRQNEIAKKRLEFENQKTRLGIQLDFEKNQLKEDQDKVHMWEQTVKKDENEIEKLKKEEQRHMKIIDETMAQLQDLKNQHLAKKSEVNDKNHEMEEIRKKLGGANKEMTHLQKEVTAIETKLEQKRSDRHNLLQACKMQDIKLPLSKGTMDDISQEEGSSQGEDSVSGSQRISSIYAREALIEIDYGDLCEDLKDAQAEEEIKQEMNTLQQKLNEQQSVLQRIAAPNMKAMEKLESVRDKFQETSDEFEAARKRAKKAKQAFEQIKKERFDRFNACFESVATNIDEIYKALSRNSSAQAFLGPENPEEPYLDGINYNCVAPGKRFRPMDNLSGGEKTVAALALLFAIHSYKPAPFFVLDEIDAALDNTNIGKVANYIKEQSTCNFQAIVISLKEEFYTKAESLIGVYPEQGDCVISKVLTFDLTKYPDANPNPNEQ
Regarding B1, the binding result is listed as “binds”.

These data come from doi:10.1101/2020.02.04.934398.
